# For at least one compound, name, drawing or mass did not settle the structure.
# Tests used:
# [1] = system: SOD1^G93A (ALS) and SOD1^WT mouse embryonic stem cell-derived motor neurons; test: Two-color screen for agents preferentially toxic to ALS motor neurons (mixed WT/G93A ES-MN culture); assay type: cell-based; details: independent pair of WT and G93A lines
# Protocol: GFP+ and RFP+ motor neurons were seeded in 96-well plates at equal proportions and imaged using a whole-well imaging platform (Plate Runner HD, Trophos, Marseilles, France). Live cells were scored with an automated image software (Metamorph, Molecular Devices, LLC, Sunnyvale, Calif.) using a neurite outgrowth criterion of five times the cell body diameter. Compounds from a small molecule library (Trophos) were loaded using automated liquid handling, and motor neuron survival was scored at 48 and 72 hours after exposure to stressors.
# A survival ratio was calculated by dividing surviving % red cells with green cells for each well (lower left panel). Compounds eliciting ratios greater than 1.6 were considered hits (highlighted in lower left panel).
# Multiple ES cell lines from SOD1^G93A mice that had been bred to a reporter strain expressing GFP under the motor neuron-specific Hb9 promoter were generated. ES cells from mice overexpressing wildtype human SOD1 (SOD1^WT) bred to mice expressing a new Hb9::RFP reporter (K. C. Kanning, unpublished) were used as controls. […] By mixing these in equal numbers in culture, the response of ALS and control motor neurons to otherwise identical culture conditions could be quantified. […]
# ES-MNs (G93A and WT) = test: Fura-2 calcium imaging of Ca++ release from ER stores; assay type: cell-based, mouse; details: 10 μM CPA, 20 minutes, G93A vs WT
# Excerpt: To explore potential mechanisms underlying the ALS-selective toxicity of CPA, calcium imaging in ES-MNs loaded with the calcium indicator dye Fura-2 was used. In preliminary experiments, rise and fall constants following a 5-second pulse of kainic acid were monitored, and no significant difference between the G93A and WT lines were found (FIG. 2B). […] It was hypothesized that CPA might selectively induce an imbalance in Ca^++ handling. To monitor release of Ca^++ from endoplasmic reticulum (ER) stores, ES-MNs of each genotype were incubated for 20 minutes with 10 μM CPA. An initial rapid increase of Fura-2 signal was followed by a slow recovery, as Ca^++ was sequestered by other routes, out of which mitochondria may be the main compensatory compartment.
# [2] = system: FACS-sorted ES-MNs of WT and G93A lines; test: CPA toxicity on FACS-sorted ES-MNs; assay type: cell-based, mouse; details: both pairs of WT and G93A lines
smiles,measurement,setting,value
"CC(=O)C1=C(O)[C@@H]2[C@H]3c4c[nH]c5cccc(c45)C[C@H]3C(C)(C)N2C1=O [CPA, cyclopiazonic acid]",Preferential activity on ALS motor neurons,[1],confirmed
same,recovery kinetics of Fura-2 signal,ES-MNs (G93A and WT),indistinguishable between the two genotypes
same,preferential degeneration of ALS motor neurons,[2],robust preferential degeneration of ALS motor neurons
